PubChem BioAssay AID686938 – Drosophila RNAi Screening Center, 2013
Purpose: 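Fly genes required for calcium entry once internal stores are emptied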 (primary screen). Cell system: Drosophila S2R+ cells. Reagent: long dsRNA against Drosophila genes, about 0.25 µg dsRNA per well, roughly 10,000 cells. Timing: 5 days of knock-down before the calcium assay. Challenge: thapsigargin (SERCA pump blocker) to empty calcium stores; entry signal taken 4 min after adding it. Measured: 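Per-well fluo-4 fluorescence in two replicates, unnormalised, measured in resting cells and 4 min after store depletion by the SERCA blocker thapsigargin; ratio of the two present in few wells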. Reading the numbers: calcium entry signal: higher = stronger calcium signal after store depletion; resting calcium signal: higher = higher resting calcium signal. Units: calcium entry signal in fluorescence units; resting calcium signal in fluorescence units. Rule for the call: 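Hit if the duplicate-averaged plate z-score for entry over resting signal is under −3; wells with weak total dye signal (Fmax z < −2) or more than 5 off-targets removed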. Meaning of the calls: active = strongly reduced calcium entry; inactive = no strong reduction.
In all, the deposit lists about 23,000 reagents; this is a random part of those with a known target gene and a result. In the full data, 75 (0.33%) were called active. 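Raw plate signals without normalisation; calls rest on plate z-scores that were not deposited; ratio present for only 364 wells.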 A number with no mark means an inactive call. The record does not give: the dose of the treatment.

After knock-down of Atg18a [DRSC10943], the record shows calcium entry signal, replicate 1 = 5.12e7; calcium entry signal, replicate 2 = 4.79e7; resting calcium signal, replicate 1 = 3.03e7; resting calcium signal, replicate 2 = 1.80e7.
CG17376 [DRSC21717] showed calcium entry signal, replicate 1 = 2.67e7; calcium entry signal, replicate 2 = 2.89e7; resting calcium signal, replicate 1 = 1.34e7; resting calcium signal, replicate 2 = 1.33e7.
Silencing of SmD3 [DRSC07553] gave: calcium entry signal, replicate 1 = 1.43e7; calcium entry signal, replicate 2 = 3.70e7; resting calcium signal, replicate 1 = 1.04e7; resting calcium signal, replicate 2 = 1.67e7.
Against l(2)k01209 [DRSC06889], the values are calcium entry signal, replicate 1 = 4.50e7; calcium entry signal, replicate 2 = 4.42e7; resting calcium signal, replicate 1 = 1.84e7; resting calcium signal, replicate 2 = 2.01e7.
For CG5644 [DRSC10531], the values are calcium entry signal, replicate 1 = 3.84e7; calcium entry signal, replicate 2 = 3.98e7; resting calcium signal, replicate 1 = 1.86e7; resting calcium signal, replicate 2 = 1.84e7.
Nubp1 [DRSC02639] gave calcium entry signal, replicate 1 = 4.37e7; resting calcium signal, replicate 1 = 2.32e7.

An excerpt of the results above, for reference:
Atg18a [DRSC10943] — calcium entry signal, replicate 1: 5.12e7; calcium entry signal, replicate 2: 4.79e7; resting calcium signal, replicate 1: 3.03e7; resting calcium signal, replicate 2: 1.80e7
CG17376 [DRSC21717] — calcium entry signal, replicate 1: 2.67e7; calcium entry signal, replicate 2: 2.89e7; resting calcium signal, replicate 1: 1.34e7; resting calcium signal, replicate 2: 1.33e7

Next results follow.
For CG13135 [DRSC02232], the entry reads calcium entry signal, replicate 1 = 3.22e7; calcium entry signal, replicate 2 = 4.42e7; resting calcium signal, replicate 1 = 1.41e7; resting calcium signal, replicate 2 = 1.92e7.
With knock-down of CG4793 [DRSC01966], the record shows calcium entry signal, replicate 1 = 4.49e7; calcium entry signal, replicate 2 = 3.64e7; resting calcium signal, replicate 1 = 1.95e7; resting calcium signal, replicate 2 = 1.65e7.
After knock-down of AP-1mu [DRSC14089] the results were calcium entry signal, replicate 1 = 3.29e7; calcium entry signal, replicate 2 = 4.58e7; resting calcium signal, replicate 1 = 1.58e7; resting calcium signal, replicate 2 = 2.02e7.
For CG5877 [DRSC19963], the values are calcium entry signal, replicate 1 = 3.29e7; calcium entry signal, replicate 2 = 3.71e7; resting calcium signal, replicate 1 = 1.57e7; resting calcium signal, replicate 2 = 1.61e7.
For CG5180 [DRSC15731] the deposit lists calcium entry signal, replicate 1 = 3.26e7; calcium entry signal, replicate 2 = 4.12e7; resting calcium signal, replicate 1 = 4.28e7; resting calcium signal, replicate 2 = 1.71e7.
Depletion of Act79B [DRSC11604] gave: calcium entry signal, replicate 1 = 2.14e7; calcium entry signal, replicate 2 = 1.18e7; resting calcium signal, replicate 1 = 1.15e7; resting calcium signal, replicate 2 = 8.58e6.
